Data as given in the supplement of paper PMC12823440, “Inhibitors supercharge kinase turnover through native proteolytic circuits” (Nature, 2025).
Counter-ions that a name gives are not always drawn. The list shows a part of the results. The calls rarely recur for the same compound in another form.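 Kinases, fused to nanoluciferase, were expressed in K562 cells; luminescence was measured every 4 h from 2 to 18 h as percent of control (DMSO = 100%, positive control = 0%). A time point is decreased if signal falls significantly (2 sigma). Hits were called by the authors by a rule that is not shown; the count of time points alone does not decide it.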

The chains behind the UniProt entries cited, without tags or fusion partners. Where a name states a change or a piece, a line headed by the entry shows the natural chain unless it says otherwise.
UniProt P06241, whole entry, looked up: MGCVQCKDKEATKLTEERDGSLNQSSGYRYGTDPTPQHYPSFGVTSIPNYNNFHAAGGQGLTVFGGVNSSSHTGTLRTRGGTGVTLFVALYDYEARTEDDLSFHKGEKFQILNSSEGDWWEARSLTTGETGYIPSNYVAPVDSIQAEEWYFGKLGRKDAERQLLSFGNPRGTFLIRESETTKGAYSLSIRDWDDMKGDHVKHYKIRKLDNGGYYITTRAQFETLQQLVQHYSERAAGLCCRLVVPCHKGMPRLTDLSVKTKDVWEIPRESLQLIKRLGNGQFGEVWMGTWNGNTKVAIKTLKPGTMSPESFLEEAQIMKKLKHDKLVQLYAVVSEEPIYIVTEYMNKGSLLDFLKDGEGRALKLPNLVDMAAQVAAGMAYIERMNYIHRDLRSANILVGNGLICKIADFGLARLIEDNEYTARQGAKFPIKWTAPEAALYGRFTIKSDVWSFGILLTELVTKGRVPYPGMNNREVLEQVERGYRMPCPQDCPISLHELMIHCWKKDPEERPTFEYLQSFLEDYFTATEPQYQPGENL
UniProt P49840: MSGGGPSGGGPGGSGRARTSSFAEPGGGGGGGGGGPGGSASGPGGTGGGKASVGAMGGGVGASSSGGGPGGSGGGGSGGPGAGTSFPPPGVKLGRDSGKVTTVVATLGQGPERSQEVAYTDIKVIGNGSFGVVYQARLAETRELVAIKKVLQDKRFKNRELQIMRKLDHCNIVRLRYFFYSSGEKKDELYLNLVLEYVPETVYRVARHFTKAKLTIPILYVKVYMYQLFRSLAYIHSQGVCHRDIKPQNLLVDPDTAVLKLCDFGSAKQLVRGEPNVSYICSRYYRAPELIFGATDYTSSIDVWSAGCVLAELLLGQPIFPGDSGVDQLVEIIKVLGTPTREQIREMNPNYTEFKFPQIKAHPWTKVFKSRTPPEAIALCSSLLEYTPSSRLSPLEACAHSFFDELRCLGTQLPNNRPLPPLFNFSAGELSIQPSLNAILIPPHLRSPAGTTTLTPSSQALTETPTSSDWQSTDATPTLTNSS
UniProt P14616: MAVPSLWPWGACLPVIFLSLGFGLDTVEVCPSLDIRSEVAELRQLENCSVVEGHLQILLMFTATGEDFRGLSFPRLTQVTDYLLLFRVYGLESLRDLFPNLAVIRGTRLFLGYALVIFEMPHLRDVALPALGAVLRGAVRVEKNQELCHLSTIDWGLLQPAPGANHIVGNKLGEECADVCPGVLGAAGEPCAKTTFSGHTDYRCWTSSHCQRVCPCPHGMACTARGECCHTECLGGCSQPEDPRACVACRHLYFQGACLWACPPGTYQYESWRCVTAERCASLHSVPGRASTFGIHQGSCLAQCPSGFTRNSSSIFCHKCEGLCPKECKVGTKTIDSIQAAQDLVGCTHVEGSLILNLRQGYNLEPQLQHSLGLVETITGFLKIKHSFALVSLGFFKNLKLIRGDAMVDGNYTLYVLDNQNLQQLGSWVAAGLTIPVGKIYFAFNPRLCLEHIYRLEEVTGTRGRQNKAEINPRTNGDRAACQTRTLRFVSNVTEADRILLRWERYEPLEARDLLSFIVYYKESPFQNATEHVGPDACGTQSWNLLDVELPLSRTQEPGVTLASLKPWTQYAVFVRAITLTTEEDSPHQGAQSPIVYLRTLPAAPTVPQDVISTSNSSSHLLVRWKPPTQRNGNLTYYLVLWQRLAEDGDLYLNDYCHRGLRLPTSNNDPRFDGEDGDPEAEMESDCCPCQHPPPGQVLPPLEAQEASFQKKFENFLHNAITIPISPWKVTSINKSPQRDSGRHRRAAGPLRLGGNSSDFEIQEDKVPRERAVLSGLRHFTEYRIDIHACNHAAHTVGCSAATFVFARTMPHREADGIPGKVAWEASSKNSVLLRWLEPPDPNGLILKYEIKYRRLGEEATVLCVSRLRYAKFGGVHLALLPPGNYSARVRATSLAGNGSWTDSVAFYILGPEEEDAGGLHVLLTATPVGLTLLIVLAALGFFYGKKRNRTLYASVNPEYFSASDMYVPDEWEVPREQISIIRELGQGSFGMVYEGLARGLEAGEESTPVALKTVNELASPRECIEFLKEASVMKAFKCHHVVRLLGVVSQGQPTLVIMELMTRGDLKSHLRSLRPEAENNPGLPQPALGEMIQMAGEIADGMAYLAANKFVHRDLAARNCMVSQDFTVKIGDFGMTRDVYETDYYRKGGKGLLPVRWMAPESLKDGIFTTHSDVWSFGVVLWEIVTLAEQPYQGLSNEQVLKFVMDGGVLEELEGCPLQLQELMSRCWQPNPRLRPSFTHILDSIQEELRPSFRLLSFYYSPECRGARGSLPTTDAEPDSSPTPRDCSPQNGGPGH
UniProt P53671: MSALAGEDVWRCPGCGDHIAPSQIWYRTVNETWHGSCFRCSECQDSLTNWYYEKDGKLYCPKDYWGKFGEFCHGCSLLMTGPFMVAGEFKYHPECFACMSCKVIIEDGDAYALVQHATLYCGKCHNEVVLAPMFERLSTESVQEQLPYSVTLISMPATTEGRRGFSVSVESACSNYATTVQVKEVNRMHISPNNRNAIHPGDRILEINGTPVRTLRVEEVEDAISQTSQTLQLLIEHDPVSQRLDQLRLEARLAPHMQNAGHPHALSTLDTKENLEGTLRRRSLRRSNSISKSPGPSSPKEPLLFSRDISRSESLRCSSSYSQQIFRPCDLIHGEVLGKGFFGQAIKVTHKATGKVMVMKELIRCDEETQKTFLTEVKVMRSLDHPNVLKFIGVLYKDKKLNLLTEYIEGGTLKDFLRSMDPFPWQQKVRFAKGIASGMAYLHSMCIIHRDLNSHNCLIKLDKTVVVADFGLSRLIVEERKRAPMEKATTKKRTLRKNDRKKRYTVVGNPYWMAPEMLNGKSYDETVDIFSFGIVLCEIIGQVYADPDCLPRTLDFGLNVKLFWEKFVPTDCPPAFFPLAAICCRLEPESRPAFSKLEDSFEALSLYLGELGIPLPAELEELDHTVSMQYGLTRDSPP
UniProt Q8IWU2: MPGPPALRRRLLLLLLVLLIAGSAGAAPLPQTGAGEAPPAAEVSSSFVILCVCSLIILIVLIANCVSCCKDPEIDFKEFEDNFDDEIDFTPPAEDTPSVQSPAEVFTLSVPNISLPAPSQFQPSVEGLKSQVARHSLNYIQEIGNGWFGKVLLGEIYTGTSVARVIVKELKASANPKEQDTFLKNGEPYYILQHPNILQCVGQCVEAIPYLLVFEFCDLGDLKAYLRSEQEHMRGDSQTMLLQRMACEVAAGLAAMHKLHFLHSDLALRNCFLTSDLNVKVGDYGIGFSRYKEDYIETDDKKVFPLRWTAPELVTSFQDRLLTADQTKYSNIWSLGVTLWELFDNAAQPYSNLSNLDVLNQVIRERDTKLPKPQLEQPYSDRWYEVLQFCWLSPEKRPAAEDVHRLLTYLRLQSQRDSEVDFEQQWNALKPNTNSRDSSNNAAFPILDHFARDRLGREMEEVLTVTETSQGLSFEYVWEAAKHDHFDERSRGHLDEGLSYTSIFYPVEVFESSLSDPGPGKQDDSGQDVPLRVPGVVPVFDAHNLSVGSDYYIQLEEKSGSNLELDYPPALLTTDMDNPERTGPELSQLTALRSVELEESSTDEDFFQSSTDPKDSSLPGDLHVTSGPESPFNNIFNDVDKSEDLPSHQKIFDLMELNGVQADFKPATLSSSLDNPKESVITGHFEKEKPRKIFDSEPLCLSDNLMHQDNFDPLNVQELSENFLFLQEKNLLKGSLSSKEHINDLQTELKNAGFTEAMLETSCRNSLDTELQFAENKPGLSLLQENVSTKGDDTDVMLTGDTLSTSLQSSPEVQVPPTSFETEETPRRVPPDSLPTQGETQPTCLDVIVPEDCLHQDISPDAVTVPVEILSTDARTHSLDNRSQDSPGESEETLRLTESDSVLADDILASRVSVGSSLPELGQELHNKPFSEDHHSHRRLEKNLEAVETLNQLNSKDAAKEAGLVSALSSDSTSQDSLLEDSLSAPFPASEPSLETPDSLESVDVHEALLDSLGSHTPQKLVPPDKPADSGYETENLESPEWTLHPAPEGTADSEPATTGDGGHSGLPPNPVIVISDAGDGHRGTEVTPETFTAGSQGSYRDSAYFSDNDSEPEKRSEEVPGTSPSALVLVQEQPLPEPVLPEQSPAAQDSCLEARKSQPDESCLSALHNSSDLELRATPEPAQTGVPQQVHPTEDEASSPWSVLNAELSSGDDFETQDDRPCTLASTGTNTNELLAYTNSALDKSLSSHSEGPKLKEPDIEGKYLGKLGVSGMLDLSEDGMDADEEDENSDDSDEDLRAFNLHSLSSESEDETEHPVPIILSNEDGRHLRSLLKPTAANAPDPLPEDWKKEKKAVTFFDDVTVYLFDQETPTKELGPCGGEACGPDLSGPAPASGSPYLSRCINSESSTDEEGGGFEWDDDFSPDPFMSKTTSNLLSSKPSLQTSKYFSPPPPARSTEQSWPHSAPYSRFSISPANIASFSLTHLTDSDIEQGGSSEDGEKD
UniProt P07948: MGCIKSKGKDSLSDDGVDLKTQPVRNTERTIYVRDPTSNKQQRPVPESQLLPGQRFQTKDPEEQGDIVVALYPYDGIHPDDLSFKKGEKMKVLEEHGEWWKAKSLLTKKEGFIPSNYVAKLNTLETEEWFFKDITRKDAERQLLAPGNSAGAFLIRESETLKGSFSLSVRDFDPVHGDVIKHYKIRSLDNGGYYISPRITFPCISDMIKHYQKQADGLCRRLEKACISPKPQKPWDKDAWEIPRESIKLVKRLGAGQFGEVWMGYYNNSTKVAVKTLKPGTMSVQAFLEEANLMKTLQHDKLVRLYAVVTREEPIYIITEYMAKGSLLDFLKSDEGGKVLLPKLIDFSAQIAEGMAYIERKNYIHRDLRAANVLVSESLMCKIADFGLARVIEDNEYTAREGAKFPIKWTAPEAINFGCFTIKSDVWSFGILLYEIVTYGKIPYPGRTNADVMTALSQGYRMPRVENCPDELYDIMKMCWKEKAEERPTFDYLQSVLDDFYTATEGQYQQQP
UniProt Q12851: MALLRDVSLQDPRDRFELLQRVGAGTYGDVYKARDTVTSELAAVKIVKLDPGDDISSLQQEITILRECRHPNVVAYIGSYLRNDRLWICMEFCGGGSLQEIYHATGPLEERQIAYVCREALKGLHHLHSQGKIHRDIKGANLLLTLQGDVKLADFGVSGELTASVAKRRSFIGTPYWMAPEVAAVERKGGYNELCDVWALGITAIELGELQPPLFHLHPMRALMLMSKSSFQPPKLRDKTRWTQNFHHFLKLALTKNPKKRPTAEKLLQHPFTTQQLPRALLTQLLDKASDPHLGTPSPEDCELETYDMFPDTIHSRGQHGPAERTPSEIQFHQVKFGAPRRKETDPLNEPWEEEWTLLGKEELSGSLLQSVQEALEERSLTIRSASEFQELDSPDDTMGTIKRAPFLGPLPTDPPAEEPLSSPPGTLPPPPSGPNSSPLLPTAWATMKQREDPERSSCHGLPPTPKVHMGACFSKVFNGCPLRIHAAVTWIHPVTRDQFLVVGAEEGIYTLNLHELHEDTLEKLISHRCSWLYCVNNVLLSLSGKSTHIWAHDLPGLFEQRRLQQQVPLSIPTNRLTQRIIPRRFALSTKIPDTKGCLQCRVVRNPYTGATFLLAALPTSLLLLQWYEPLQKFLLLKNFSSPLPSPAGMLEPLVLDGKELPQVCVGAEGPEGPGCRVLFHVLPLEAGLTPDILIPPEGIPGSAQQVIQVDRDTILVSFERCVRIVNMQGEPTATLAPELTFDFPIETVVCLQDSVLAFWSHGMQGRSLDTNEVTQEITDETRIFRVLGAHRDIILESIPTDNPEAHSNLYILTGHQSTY
UniProt P28482, whole entry: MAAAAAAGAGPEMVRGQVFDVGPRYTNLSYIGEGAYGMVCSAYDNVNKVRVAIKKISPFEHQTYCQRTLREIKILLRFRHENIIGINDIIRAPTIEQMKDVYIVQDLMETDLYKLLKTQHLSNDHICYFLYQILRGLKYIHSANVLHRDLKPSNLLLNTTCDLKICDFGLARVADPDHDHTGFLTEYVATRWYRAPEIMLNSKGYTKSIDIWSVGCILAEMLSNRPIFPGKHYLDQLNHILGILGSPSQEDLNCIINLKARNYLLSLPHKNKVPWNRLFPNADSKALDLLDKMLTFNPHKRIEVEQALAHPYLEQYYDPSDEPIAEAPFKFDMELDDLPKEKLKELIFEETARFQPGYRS
UniProt P49137, whole entry, looked up: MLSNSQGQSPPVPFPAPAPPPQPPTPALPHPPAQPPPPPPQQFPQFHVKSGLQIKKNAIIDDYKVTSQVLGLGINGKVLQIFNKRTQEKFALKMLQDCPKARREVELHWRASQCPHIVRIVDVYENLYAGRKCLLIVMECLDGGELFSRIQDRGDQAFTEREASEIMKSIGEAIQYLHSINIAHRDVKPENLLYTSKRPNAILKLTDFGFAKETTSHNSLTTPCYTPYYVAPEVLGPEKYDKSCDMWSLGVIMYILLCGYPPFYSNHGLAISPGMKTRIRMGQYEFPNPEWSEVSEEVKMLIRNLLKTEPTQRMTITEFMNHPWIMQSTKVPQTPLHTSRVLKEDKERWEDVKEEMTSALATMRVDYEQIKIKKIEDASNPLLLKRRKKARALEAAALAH

Legend:
Test in all cases: number of time points (of 5) at which kinase-Nluc abundance scored as decreased, DMSO-normalised (count); higher = more persistent destabilization
Settings in all cases: K562; 2-18 h
FLT3 = FLT3 (UniProt P36888)
FYN = FYN (UniProt P06241)
GSK3A = GSK3A (UniProt P49840)
HER2 = HER2 (UniProt P04626)
INSRR = INSRR (UniProt P14616)
IRAK3 = IRAK3 (UniProt Q9Y616)
JAK1 = JAK1 (UniProt P23458)
LCK = LCK (UniProt P06239)
LIMK1 = LIMK1 (UniProt P53667)
LIMK2 = LIMK2 (UniProt P53671)
LMTK2 = LMTK2 (UniProt Q8IWU2)
LYN = LYN (UniProt P07948)
MAP2K1 = MAP2K1 (UniProt Q02750)
MAP2K2 = MAP2K2 (UniProt P36507)
MAP4K2 = MAP4K2 (UniProt Q12851)
MAPK1 = MAPK1 (UniProt P28482)
MAPK4 = MAPK4 (UniProt P31152)
MAPKAPK2 = MAPKAPK2 (UniProt P49137)
MKNK1 = MKNK1 (UniProt Q9BUB5)
NTRK2 = NTRK2 (UniProt Q16620)

| SMILES | number of time points (FLT3) | number of time points (FYN) | number of time points (GSK3A) | number of time points (HER2) | number of time points (INSRR) | number of time points (IRAK3) | number of time points (JAK1) | number of time points (LCK) | number of time points (LIMK1) | number of time points (LIMK2) | number of time points (LMTK2) | number of time points (LYN) | number of time points (MAP2K1) | number of time points (MAP2K2) | number of time points (MAP4K2) | number of time points (MAPK1) | number of time points (MAPK4) | number of time points (MAPKAPK2) | number of time points (MKNK1) | number of time points (NTRK2) |
| --- | --- | --- | --- | --- | --- | --- | --- | --- | --- | --- | --- | --- | --- | --- | --- | --- | --- | --- | --- | --- |
| O=C1NC(=O)/C(=C/c2ccc3nccnc3c2)S1 (10 µM) | 0 | 0 | 0 | 0 | 0 | 0 | 0 | 0 | 0 | 0 | 0 | 0 | 0 | 0 | 0 | 0 | 0 | 0 | 0 | 0 |
| Cc1ccc(C(=O)Nc2ccc(Oc3cc4cnn(C)c4cc3-c3cn[nH]c3)c(F)c2)c(=O)n1-c1ccc(F)cc1 [Merestinib] (2.5 µM) | 0 | 0 | 0 | 0 | 0 | 0 | 0 | 0 | 4 | 0 | 0 | 0 | 0 | 0 | 0 | 0 | 0 | 0 | 0 | 0 |
| Cc1cccc(Oc2cnc(=O)[nH]c2)c1 [Tolimidone] (10 µM) | 0 | 0 | 0 | 0 | 0 | 0 | 0 | 0 | 0 | 0 | 0 | 0 | 0 | 0 | 0 | 0 | 0 | 0 | 0 | 0 |
| COc1cc2ncc(-c3ccccc3)nc2cc1OC [Tyrphostin AG1296] (10 µM) | 0 | 0 | 0 | 0 | 0 | 0 | 0 | 0 | 0 | 0 | 0 | 0 | 0 | 0 | 0 | 0 | 0 | 0 | 0 | 0 |
| Cc1[nH]c(/C=C2\C(=O)Nc3ccccc32)c(C)c1CCC(=O)O [(Z)-Orantinib] (10 µM) | 0 | 0 | 0 | 0 | 0 | 0 | 0 | 0 | 0 | 0 | 0 | 0 | 0 | 0 | 0 | 0 | 0 | 0 | 0 | 0 |
| C=C1C(=O)O[C@H]2C[C@H](C)C(/C=C/C(C)=O)=CC[C@H]12 [Xanthatin] (2.5 µM) | 0 | 0 | 0 | 0 | 0 | 0 | 0 | 0 | 0 | 0 | 0 | 0 | 0 | 0 | 0 | 0 | 0 | 0 | 0 | 0 |
| Cc1nc(-c2cn3c(n2)-c2ccc(-c4cnn(C(C)(C)C(N)=O)c4)cc2OCC3)n(C(C)C)n1 [Taselisib] (10 µM) | 0 | 0 | 0 | 0 | 0 | 0 | 0 | 0 | 1 | 0 | 0 | 0 | 0 | 0 | 0 | 0 | 0 | 0 | 0 | 0 |
| Cc1[nH]c(/C=C2\C(=O)Nc3ccc(F)cc32)c(C)c1C(=O)N[C@H]1CCN(C(=O)N(C)C)C1 [Vorolanib] (10 µM) | 0 | 0 | 0 | 0 | 0 | 0 | 0 | 0 | 0 | 0 | 0 | 0 | 0 | 0 | 0 | 0 | 0 | 0 | 0 | 0 |
| FC(F)c1nc2ccccc2n1-c1nc(N2CCOCC2)nc(N2CCOCC2)n1 (2 µM) | 0 | 0 | 0 | 0 | 0 | 0 | 0 | 0 | 3 | 0 | 0 | 0 | 0 | 0 | 0 | 0 | 0 | 0 | 0 | 0 |
| Cc1cccc(-c2[nH]ncc2-c2ccc(F)c(-c3cnn(CCO)c3)c2)n1 (10 µM) | 0 | 0 | 0 | 0 | 0 | 0 | 0 | 0 | 0 | 0 | 0 | 0 | 0 | 0 | 0 | 0 | 0 | 0 | 0 | 0 |
| NC(=O)c1ccc(-c2nc(-c3ccc4c(c3)OCCO4)c(-c3ccccn3)[nH]2)cc1 (10 µM) | 0 | 1 | 0 | 0 | 0 | 0 | 0 | 0 | 0 | 0 | 0 | 0 | 0 | 0 | 0 | 0 | 0 | 0 | 0 | 0 |
| O=Nc1c(-c2c(O)[nH]c3ccc(F)cc23)[nH]c2ccccc12 [5'-Fluoroindirubinoxime] (10 µM) | 0 | 0 | 0 | 0 | 0 | 0 | 0 | 0 | 0 | 0 | 0 | 0 | 0 | 0 | 0 | 0 | 0 | 0 | 0 | 0 |
| CNc1nc(Nc2ccc(C(=O)N3CCOCC3)cc2OC)nc2[nH]cc(Cl)c12 (2.5 µM) | 0 | 0 | 0 | 0 | 0 | 0 | 0 | 0 | 0 | 0 | 0 | 0 | 0 | 0 | 0 | 0 | 0 | 0 | 0 | 0 |
| C=CC(=O)Nc1cc(Nc2ncc(Cl)c(-c3c[nH]c4ccccc34)n2)c(OC)cc1N(C)CCN(C)C [Mutant EGFR inhibitor] (2.5 µM) | 0 | 0 | 0 | 4 | 2 | 1 | 0 | 0 | 4 | 2 | 0 | 0 | 0 | 0 | 0 | 0 | 0 | 0 | 3 | 0 |
| Cc1c(NC(=O)c2cccn(-c3ccc(F)cc3)c2=O)ccc(Oc2ccnc(NC(=O)C3CC3)c2)c1C (2 µM) | 0 | 0 | 0 | 0 | 0 | 1 | 0 | 0 | 3 | 4 | 0 | 0 | 0 | 0 | 0 | 0 | 0 | 0 | 3 | 0 |
| Cc1cc(=O)oc2c(C=O)c(O)ccc12 (10 µM) | 0 | 0 | 0 | 0 | 0 | 0 | 0 | 0 | 0 | 0 | 0 | 0 | 0 | 0 | 0 | 0 | 0 | 0 | 0 | 0 |
| C=CC(=O)Nc1ccc(CN2C(=O)N(c3cc(OC)cc(OC)c3)Cc3cnc(Nc4ccc(N5CCN(C)CC5)cc4)nc32)cc1 (2.5 µM) | 0 | 0 | 0 | 5 | 0 | 0 | 0 | 0 | 4 | 0 | 0 | 0 | 0 | 0 | 0 | 0 | 0 | 0 | 0 | 0 |
| N#Cc1c(C2CCNCC2)cc(-c2c(O)cccc2OCC2CC2)nc1N [ACHP (Hydrochloride)] (10 µM) | 0 | 0 | 0 | 0 | 0 | 0 | 0 | 0 | 0 | 0 | 0 | 0 | 0 | 0 | 0 | 0 | 0 | 0 | 0 | 0 |
| Cc1cc(CN2CCN(c3c(Br)cnc4nc(-c5ccc(N6CCN(C)CC6)cc5)[nH]c34)CC2)no1 (2.5 µM) | 0 | 0 | 0 | 0 | 0 | 0 | 0 | 0 | 0 | 0 | 0 | 0 | 0 | 0 | 0 | 0 | 0 | 0 | 0 | 0 |
| c1ccc(-c2[nH]ncc2-c2ccnc3ccccc23)nc1 (10 µM) | 0 | 0 | 0 | 0 | 0 | 0 | 0 | 0 | 0 | 0 | 0 | 0 | 0 | 0 | 0 | 0 | 0 | 0 | 0 | 0 |
| CC#CC(=O)N1CC[C@@H](n2c(=O)n(-c3ccc(Oc4ccccc4)cc3)c3c(N)ncnc32)C1 [Tirabrutinib (hydrochloride)] (10 µM) | 0 | 0 | 0 | 0 | 0 | 0 | 0 | 0 | 0 | 0 | 0 | 0 | 0 | 0 | 0 | 0 | 0 | 0 | 0 | 0 |
| Cc1cc(Nc2ncnc3ccc(NC4=NC(C)(C)CO4)cc23)ccc1Oc1ccn2ncnc2c1 [Tucatinib (hemiethanolate)] (2.5 µM) | 0 | 0 | 0 | 0 | 0 | 0 | 0 | 0 | 0 | 0 | 0 | 0 | 0 | 0 | 0 | 0 | 0 | 0 | 0 | 0 |
| Cn1cc(-c2cnn3c(N)c(Br)c([C@@H]4CCCNC4)nc23)cn1 (2.5 µM) | 4 | 1 | 0 | 1 | 1 | 1 | 3 | 0 | 2 | 3 | 1 | 1 | 0 | 0 | 0 | 0 | 0 | 0 | 1 | 2 |
| O=C(N/N=C/c1coc2ccccc2c1=O)c1cccnc1 (10 µM) | 0 | 0 | 0 | 0 | 0 | 0 | 0 | 0 | 0 | 0 | 0 | 0 | 0 | 0 | 0 | 0 | 0 | 0 | 0 | 0 |
| C[C@H](c1ccnc(Nc2nc3ccc(-c4cc(N(C)C)ncn4)cc3[nH]2)c1)N1CCN(C(=O)CC(F)(F)F)CC1 (2.5 µM) | 0 | 0 | 0 | 0 | 0 | 0 | 0 | 0 | 0 | 0 | 0 | 0 | 0 | 0 | 0 | 0 | 0 | 0 | 0 | 0 |

Full records, quoted from the list. Order of values: number of time points (FLT3) | number of time points (FYN) | number of time points (GSK3A) | number of time points (HER2) | number of time points (INSRR) | number of time points (IRAK3) | number of time points (JAK1) | number of time points (LCK) | number of time points (LIMK1) | number of time points (LIMK2) | number of time points (LMTK2) | number of time points (LYN) | number of time points (MAP2K1) | number of time points (MAP2K2) | number of time points (MAP4K2) | number of time points (MAPK1) | number of time points (MAPK4) | number of time points (MAPKAPK2) | number of time points (MKNK1) | number of time points (NTRK2)
Cc1cc(=O)oc2c(C=O)c(O)ccc12 (10 µM) in the list: 0 | 0 | 0 | 0 | 0 | 0 | 0 | 0 | 0 | 0 | 0 | 0 | 0 | 0 | 0 | 0 | 0 | 0 | 0 | 0
N#Cc1c(C2CCNCC2)cc(-c2c(O)cccc2OCC2CC2)nc1N [ACHP (Hydrochloride)] (10 µM) in the list: 0 | 0 | 0 | 0 | 0 | 0 | 0 | 0 | 0 | 0 | 0 | 0 | 0 | 0 | 0 | 0 | 0 | 0 | 0 | 0
